Test results reported in the supplement of paper PMC12595434, “Development of retinoid nuclear receptor pathway antagonists through targeting aldehyde dehydrogenase 1A3” (iScience, 2025).
The other results are listed elsewhere or left out. Single values of this set are uncertain.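 Many melting curves are irregular; where none melted, Tm was taken as 64 °C.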

Chains of the proteins cited; added tags and fusions are not shown. Lines headed by an entry give the natural chain unless they say otherwise; changes in a name come on top.
UniProt Q9UBK7: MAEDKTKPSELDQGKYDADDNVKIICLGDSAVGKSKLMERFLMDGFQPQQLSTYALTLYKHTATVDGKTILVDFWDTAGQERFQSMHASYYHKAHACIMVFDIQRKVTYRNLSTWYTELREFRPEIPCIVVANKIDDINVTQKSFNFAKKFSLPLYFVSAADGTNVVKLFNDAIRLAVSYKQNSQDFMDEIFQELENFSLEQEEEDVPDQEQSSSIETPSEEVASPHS
UniProt Q9NYJ1, whole entry: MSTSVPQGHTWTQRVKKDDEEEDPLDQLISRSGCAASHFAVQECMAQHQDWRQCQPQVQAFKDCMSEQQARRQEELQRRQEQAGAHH
UniProt Q9P2S2: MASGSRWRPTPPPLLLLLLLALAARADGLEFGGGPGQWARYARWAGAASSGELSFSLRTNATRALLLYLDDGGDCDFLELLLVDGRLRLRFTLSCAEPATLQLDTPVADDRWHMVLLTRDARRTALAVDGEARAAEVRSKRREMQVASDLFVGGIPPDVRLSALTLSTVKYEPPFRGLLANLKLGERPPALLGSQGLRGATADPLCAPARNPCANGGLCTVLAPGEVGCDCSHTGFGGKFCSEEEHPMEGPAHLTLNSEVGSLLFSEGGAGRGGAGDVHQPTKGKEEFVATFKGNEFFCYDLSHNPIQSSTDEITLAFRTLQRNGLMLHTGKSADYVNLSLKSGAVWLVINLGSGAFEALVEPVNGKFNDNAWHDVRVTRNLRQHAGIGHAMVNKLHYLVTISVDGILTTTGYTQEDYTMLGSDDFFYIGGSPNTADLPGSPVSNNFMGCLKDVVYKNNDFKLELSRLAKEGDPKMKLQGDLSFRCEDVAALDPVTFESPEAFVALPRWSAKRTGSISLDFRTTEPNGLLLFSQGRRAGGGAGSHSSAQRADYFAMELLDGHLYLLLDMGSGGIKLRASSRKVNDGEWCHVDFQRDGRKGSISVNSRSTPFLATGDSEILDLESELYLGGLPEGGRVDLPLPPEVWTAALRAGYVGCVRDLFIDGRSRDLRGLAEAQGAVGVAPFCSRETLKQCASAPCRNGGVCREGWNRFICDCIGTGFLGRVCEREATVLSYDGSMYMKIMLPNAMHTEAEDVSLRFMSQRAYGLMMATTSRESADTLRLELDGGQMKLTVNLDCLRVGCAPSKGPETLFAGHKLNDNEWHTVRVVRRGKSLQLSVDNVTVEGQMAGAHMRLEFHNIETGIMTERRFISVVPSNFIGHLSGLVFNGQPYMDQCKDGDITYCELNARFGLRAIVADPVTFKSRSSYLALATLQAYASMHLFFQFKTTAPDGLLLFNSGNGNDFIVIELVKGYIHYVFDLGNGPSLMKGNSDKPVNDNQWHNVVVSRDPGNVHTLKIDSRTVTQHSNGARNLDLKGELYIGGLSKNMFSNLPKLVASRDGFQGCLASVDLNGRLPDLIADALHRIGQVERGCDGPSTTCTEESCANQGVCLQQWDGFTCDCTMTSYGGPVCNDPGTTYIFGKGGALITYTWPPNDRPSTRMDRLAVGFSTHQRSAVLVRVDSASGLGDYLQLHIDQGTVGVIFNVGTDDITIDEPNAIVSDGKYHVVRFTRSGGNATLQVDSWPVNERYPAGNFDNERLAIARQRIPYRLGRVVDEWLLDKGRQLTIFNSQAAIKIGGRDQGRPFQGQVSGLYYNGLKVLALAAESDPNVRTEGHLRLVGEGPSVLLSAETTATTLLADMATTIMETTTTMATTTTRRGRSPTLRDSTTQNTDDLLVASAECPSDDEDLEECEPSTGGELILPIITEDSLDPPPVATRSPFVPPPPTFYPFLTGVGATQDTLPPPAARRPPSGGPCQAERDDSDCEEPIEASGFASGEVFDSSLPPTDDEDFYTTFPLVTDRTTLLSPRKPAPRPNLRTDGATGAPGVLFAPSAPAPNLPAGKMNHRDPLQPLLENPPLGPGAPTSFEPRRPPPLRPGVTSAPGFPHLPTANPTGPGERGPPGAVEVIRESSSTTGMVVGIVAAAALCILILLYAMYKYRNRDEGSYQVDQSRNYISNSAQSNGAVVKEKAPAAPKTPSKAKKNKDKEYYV
UniProt Q9NZM3: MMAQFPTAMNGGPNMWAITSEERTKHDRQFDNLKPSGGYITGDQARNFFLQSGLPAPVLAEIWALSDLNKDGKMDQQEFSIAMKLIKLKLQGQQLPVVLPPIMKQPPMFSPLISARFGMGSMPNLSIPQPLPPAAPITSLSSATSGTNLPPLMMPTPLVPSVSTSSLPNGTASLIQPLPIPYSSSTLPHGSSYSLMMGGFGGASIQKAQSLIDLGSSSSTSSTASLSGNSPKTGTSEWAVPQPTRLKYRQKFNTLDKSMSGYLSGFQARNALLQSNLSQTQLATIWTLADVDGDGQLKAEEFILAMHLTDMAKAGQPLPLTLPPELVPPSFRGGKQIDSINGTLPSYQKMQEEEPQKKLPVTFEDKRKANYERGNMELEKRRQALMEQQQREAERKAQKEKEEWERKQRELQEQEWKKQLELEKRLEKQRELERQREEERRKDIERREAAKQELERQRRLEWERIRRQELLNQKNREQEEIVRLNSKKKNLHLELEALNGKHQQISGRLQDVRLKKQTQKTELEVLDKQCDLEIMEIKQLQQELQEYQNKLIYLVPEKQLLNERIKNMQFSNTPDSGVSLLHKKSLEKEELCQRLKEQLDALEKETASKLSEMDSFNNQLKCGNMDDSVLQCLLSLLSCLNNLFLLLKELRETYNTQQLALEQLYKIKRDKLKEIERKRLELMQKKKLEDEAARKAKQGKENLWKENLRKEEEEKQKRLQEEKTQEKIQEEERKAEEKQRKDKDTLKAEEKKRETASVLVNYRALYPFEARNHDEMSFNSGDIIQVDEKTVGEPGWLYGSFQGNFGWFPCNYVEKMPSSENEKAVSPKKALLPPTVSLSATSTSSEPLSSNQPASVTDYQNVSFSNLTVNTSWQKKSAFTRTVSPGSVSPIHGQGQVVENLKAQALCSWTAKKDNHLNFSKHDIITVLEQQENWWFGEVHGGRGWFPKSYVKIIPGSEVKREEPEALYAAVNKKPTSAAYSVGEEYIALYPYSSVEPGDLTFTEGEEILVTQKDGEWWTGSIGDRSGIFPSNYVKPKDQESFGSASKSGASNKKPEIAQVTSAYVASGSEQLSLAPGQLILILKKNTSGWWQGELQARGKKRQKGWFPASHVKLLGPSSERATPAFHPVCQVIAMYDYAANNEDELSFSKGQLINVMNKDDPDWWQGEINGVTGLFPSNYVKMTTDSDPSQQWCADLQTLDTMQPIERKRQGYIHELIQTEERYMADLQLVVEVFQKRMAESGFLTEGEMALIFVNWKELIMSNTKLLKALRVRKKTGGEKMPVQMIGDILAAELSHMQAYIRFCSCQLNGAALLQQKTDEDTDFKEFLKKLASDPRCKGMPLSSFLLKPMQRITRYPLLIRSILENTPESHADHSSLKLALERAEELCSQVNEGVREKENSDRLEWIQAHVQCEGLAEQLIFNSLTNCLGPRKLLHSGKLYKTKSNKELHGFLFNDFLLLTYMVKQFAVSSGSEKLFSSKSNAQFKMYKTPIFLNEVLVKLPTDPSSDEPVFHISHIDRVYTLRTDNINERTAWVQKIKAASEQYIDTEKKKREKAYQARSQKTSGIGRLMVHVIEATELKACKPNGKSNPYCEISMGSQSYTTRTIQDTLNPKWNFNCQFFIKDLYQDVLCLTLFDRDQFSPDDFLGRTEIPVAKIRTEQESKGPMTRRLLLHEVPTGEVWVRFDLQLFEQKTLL
UniProt Q9UEE9, whole entry: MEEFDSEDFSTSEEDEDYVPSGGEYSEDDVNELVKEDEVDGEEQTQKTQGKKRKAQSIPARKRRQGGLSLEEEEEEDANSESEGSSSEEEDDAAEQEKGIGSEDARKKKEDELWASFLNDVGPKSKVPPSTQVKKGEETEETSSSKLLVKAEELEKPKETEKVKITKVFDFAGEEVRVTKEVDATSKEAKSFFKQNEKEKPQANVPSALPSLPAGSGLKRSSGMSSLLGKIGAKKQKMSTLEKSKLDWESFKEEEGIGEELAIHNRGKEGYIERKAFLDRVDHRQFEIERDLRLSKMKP
UniProt Q9NX62: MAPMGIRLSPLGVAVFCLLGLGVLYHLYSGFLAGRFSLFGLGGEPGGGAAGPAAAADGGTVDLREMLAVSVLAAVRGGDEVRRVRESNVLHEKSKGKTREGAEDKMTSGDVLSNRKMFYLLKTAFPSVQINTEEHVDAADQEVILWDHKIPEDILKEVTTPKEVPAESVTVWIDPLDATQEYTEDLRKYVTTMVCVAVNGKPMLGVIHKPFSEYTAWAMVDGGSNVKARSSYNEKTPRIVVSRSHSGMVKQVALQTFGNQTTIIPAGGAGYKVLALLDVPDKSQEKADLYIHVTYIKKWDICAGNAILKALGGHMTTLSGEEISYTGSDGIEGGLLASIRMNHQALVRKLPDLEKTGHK
UniProt Q9UBB9: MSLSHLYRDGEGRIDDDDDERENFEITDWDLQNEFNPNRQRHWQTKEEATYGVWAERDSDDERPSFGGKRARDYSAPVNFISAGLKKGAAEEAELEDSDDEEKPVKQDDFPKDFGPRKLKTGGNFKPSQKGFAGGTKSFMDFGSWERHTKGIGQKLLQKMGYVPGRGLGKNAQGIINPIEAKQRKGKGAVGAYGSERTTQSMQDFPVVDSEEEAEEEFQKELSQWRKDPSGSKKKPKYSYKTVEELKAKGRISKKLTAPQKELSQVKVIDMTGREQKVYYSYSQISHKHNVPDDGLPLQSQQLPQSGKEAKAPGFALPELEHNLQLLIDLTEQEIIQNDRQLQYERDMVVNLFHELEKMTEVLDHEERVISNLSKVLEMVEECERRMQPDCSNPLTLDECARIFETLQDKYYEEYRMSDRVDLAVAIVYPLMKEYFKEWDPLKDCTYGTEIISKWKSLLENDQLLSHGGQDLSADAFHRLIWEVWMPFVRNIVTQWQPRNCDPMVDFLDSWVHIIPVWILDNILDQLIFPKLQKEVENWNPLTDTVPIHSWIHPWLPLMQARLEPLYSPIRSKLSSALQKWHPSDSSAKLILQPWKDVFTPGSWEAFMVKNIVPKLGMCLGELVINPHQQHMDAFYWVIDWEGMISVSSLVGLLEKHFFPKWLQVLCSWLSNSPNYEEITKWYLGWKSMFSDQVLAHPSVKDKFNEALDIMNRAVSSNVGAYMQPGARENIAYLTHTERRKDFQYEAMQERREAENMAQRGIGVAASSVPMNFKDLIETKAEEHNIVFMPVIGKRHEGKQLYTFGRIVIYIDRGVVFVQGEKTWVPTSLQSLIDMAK
UniProt Q9UBX3: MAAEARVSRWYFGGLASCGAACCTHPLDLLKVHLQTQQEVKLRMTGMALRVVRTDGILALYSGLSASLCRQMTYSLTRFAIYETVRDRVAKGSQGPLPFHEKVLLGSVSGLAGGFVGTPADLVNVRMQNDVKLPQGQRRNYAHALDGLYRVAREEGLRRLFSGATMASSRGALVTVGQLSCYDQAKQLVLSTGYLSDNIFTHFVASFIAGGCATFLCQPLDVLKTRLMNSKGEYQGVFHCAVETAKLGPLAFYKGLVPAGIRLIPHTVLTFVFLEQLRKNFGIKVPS
UniProt Q9NZ52: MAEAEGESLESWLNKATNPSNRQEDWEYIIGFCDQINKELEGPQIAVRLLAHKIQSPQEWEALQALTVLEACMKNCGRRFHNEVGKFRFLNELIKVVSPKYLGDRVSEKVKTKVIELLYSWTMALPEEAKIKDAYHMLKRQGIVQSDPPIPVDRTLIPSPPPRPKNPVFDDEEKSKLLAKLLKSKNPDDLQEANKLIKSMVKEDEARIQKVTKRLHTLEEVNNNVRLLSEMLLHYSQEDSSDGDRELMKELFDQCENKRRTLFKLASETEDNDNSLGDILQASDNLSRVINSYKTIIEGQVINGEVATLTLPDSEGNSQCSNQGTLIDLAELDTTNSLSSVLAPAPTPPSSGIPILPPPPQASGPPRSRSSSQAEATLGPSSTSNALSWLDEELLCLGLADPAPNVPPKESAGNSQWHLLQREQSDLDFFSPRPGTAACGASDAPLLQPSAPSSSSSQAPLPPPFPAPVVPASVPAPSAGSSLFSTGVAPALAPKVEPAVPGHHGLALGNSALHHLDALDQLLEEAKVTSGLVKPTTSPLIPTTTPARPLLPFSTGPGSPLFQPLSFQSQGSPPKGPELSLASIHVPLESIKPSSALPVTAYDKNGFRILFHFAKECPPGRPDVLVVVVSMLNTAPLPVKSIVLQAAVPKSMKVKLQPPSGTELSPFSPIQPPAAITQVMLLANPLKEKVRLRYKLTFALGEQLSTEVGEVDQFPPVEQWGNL
UniProt Q9UFF9, whole entry: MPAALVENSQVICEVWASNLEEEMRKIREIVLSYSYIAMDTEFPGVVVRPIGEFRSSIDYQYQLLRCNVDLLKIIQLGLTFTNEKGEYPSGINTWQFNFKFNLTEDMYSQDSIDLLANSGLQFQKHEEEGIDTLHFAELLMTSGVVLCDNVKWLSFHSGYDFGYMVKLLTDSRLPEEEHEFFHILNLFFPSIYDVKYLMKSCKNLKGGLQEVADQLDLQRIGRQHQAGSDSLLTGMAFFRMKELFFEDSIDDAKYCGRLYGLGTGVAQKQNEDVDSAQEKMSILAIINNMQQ

Compound: CCc1cnccc1C(=O)Nc1cc2c(cc1F)NC(=O)CC2
Assay: melting temperature shift (DMSO Tm minus MBE1-treated Tm) in cellular thermal proteome profiling; higher = less thermal stabilization by MBE1 (negative = stabilized by MBE1)
Conditions: A375

## BRE (UniProt Q9NXR7)
MBE1 concentration: 100 nM
  melting temperature shift: -1.02 °C
MBE1 concentration: 1 uM
  melting temperature shift: 0.531 °C

## UniProt Q9NZV5
MBE1 concentration: 100 nM
  melting temperature shift: 0.452 °C
MBE1 concentration: 1 uM
  melting temperature shift: 0.00611 °C

## ABI2 (UniProt Q9NYB9)
MBE1 concentration: 100 nM
  melting temperature shift: 0.25 °C
MBE1 concentration: 1 uM
  melting temperature shift: 0.342 °C

## UniProt Q9NZN3
MBE1 concentration: 100 nM
  melting temperature shift: 0.311 °C
MBE1 concentration: 1 uM
  melting temperature shift: 0.153 °C

## GLTP (UniProt Q9NZD2)
MBE1 concentration: 100 nM
  melting temperature shift: 0.362 °C
MBE1 concentration: 1 uM
  melting temperature shift: 0.49 °C

## TMEM161A (UniProt Q9NX61)
MBE1 concentration: 100 nM
  melting temperature shift: 1.46 °C
MBE1 concentration: 1 uM
  melting temperature shift: 0.232 °C

## DUS2 (UniProt Q9NX74)
MBE1 concentration: 100 nM
  melting temperature shift: 0.989 °C
MBE1 concentration: 1 uM
  melting temperature shift: 0.855 °C

## UniProt Q9UBK7
MBE1 concentration: 100 nM
  melting temperature shift: 0.4 °C
MBE1 concentration: 1 uM
  melting temperature shift: -0.843 °C

## BSDC1 (UniProt Q9NW68)
MBE1 concentration: 100 nM
  melting temperature shift: -1.09 °C
MBE1 concentration: 1 uM
  melting temperature shift: -0.174 °C

## NSMCE4A (UniProt Q9NXX6)
MBE1 concentration: 100 nM
  melting temperature shift: 1.05 °C
MBE1 concentration: 1 uM
  melting temperature shift: 1.38 °C

## METTL1 (UniProt Q9UBP6)
MBE1 concentration: 100 nM
  melting temperature shift: -0.436 °C
MBE1 concentration: 1 uM
  melting temperature shift: 0.423 °C

## PIH1D1 (UniProt Q9NWS0)
MBE1 concentration: 100 nM
  melting temperature shift: 0.879 °C
MBE1 concentration: 1 uM
  melting temperature shift: 0.379 °C

## UniProt Q9NYJ1
MBE1 concentration: 100 nM
  melting temperature shift: 0 °C
MBE1 concentration: 1 uM
  melting temperature shift: 0 °C

## EXD2 (UniProt Q9NVH0)
MBE1 concentration: 100 nM
  melting temperature shift: -0.183 °C
MBE1 concentration: 1 uM
  melting temperature shift: -0.468 °C

## GTSE1 (UniProt Q9NYZ3)
MBE1 concentration: 100 nM
  melting temperature shift: -4.84 °C
MBE1 concentration: 1 uM
  melting temperature shift: 5.95 °C

## RNF14 (UniProt Q9UBS8)
MBE1 concentration: 100 nM
  melting temperature shift: 1.05 °C
MBE1 concentration: 1 uM
  melting temperature shift: 0.238 °C

## EIF3K (UniProt Q9UBQ5)
MBE1 concentration: 100 nM
  melting temperature shift: 0.0733 °C
MBE1 concentration: 1 uM
  melting temperature shift: 0.11 °C

## UniProt Q9P1Y6
MBE1 concentration: 100 nM
  melting temperature shift: -1.53 °C
MBE1 concentration: 1 uM
  melting temperature shift: -0.249 °C

## UniProt Q9P2S2
MBE1 concentration: 100 nM
  melting temperature shift: 0.0335 °C
MBE1 concentration: 1 uM
  melting temperature shift: 1.76 °C

## RBM22 (UniProt Q9NW64)
MBE1 concentration: 100 nM
  melting temperature shift: 0.434 °C
MBE1 concentration: 1 uM
  melting temperature shift: -0.263 °C

## NUDT4 (UniProt Q9NZJ9)
MBE1 concentration: 100 nM
  melting temperature shift: 0.556 °C
MBE1 concentration: 1 uM
  melting temperature shift: -0.336 °C

## THUMPD1 (UniProt Q9NXG2)
MBE1 concentration: 100 nM
  melting temperature shift: -1.56 °C
MBE1 concentration: 1 uM
  melting temperature shift: 0.824 °C

## UniProt Q9P2Q2
MBE1 concentration: 100 nM
  melting temperature shift: 1.95 °C
MBE1 concentration: 1 uM
  melting temperature shift: 1.6 °C

## CHCHD3 (UniProt Q9NX63)
MBE1 concentration: 100 nM
  melting temperature shift: -1.07 °C
MBE1 concentration: 1 uM
  melting temperature shift: 0.116 °C

## COMMD9 (UniProt Q9P000)
MBE1 concentration: 100 nM
  melting temperature shift: -0.228 °C
MBE1 concentration: 1 uM
  melting temperature shift: 0 °C

## UniProt Q9P0K1
MBE1 concentration: 100 nM
  melting temperature shift: 0.704 °C
MBE1 concentration: 1 uM
  melting temperature shift: -4.39 °C

## ITSN2 (UniProt Q9NZM3)
MBE1 concentration: 100 nM
  melting temperature shift: -0.855 °C
MBE1 concentration: 1 uM
  melting temperature shift: -0.832 °C

## UniProt Q9NX31
MBE1 concentration: 100 nM
  melting temperature shift: 0.849 °C
MBE1 concentration: 1 uM
  melting temperature shift: -0.275 °C

## UniProt Q9P0N9
MBE1 concentration: 100 nM
  melting temperature shift: -0.387 °C
MBE1 concentration: 1 uM
  melting temperature shift: -0.326 °C

## UniProt Q9P2P1
MBE1 concentration: 100 nM
  melting temperature shift: -0.0313 °C
MBE1 concentration: 1 uM
  melting temperature shift: 0.318 °C

## KIAA1468 (UniProt Q9P260)
MBE1 concentration: 100 nM
  melting temperature shift: 0.69 °C
MBE1 concentration: 1 uM
  melting temperature shift: 0.415 °C

## DHCR7 (UniProt Q9UBM7)
MBE1 concentration: 100 nM
  melting temperature shift: -0.107 °C
MBE1 concentration: 1 uM
  melting temperature shift: 0.896 °C

## MTRR (UniProt Q9UBK8)
MBE1 concentration: 100 nM
  melting temperature shift: 0.379 °C
MBE1 concentration: 1 uM
  melting temperature shift: -0.824 °C

## CFDP1 (UniProt Q9UEE9)
MBE1 concentration: 100 nM
  melting temperature shift: -3.25 °C
MBE1 concentration: 1 uM
  melting temperature shift: -3 °C

## UniProt Q9NWY4
MBE1 concentration: 100 nM
  melting temperature shift: 0.0705 °C
MBE1 concentration: 1 uM
  melting temperature shift: 0.0961 °C

## DNAJC17 (UniProt Q9NVM6)
MBE1 concentration: 100 nM
  melting temperature shift: 0.812 °C
MBE1 concentration: 1 uM
  melting temperature shift: 0.256 °C

## UniProt Q9NX70
MBE1 concentration: 100 nM
  melting temperature shift: -0.602 °C
MBE1 concentration: 1 uM
  melting temperature shift: -3.34 °C

## UniProt Q9P2J9
MBE1 concentration: 100 nM
  melting temperature shift: 0.767 °C
MBE1 concentration: 1 uM
  melting temperature shift: 1.08 °C

## DNAJC11 (UniProt Q9NVH1)
MBE1 concentration: 100 nM
  melting temperature shift: -0.959 °C
MBE1 concentration: 1 uM
  melting temperature shift: -0.215 °C

## RMND1 (UniProt Q9NWS8)
MBE1 concentration: 100 nM
  melting temperature shift: -0.749 °C
MBE1 concentration: 1 uM
  melting temperature shift: -0.11 °C

## IMPAD1 (UniProt Q9NX62)
MBE1 concentration: 100 nM
  melting temperature shift: -2.2 °C
MBE1 concentration: 1 uM
  melting temperature shift: -1.6 °C

## UniProt Q9NYL4
MBE1 concentration: 100 nM
  melting temperature shift: -2.04 °C
MBE1 concentration: 1 uM
  melting temperature shift: 1.11 °C

## TFIP11 (UniProt Q9UBB9)
MBE1 concentration: 100 nM
  melting temperature shift: -0.442 °C
MBE1 concentration: 1 uM
  melting temperature shift: -0.378 °C

## NCKIPSD (UniProt Q9NZQ3)
MBE1 concentration: 100 nM
  melting temperature shift: -1.25 °C
MBE1 concentration: 1 uM
  melting temperature shift: -0.179 °C

## TAB2 (UniProt Q9NYJ8)
MBE1 concentration: 100 nM
  melting temperature shift: -0.654 °C
MBE1 concentration: 1 uM
  melting temperature shift: -0.823 °C

## UniProt Q9NZW5
MBE1 concentration: 100 nM
  melting temperature shift: 0.751 °C
MBE1 concentration: 1 uM
  melting temperature shift: -0.00611 °C

## UniProt Q9UBX3
MBE1 concentration: 100 nM
  melting temperature shift: -0.458 °C
MBE1 concentration: 1 uM
  melting temperature shift: 0.14 °C

## NECAP2 (UniProt Q9NVZ3)
MBE1 concentration: 100 nM
  melting temperature shift: -0.83 °C
MBE1 concentration: 1 uM
  melting temperature shift: 0.0366 °C

## PNPO (UniProt Q9NVS9)
MBE1 concentration: 100 nM
  melting temperature shift: -0.235 °C
MBE1 concentration: 1 uM
  melting temperature shift: -0.235 °C

## UniProt Q9NW61
MBE1 concentration: 100 nM
  melting temperature shift: 0.0179 °C
MBE1 concentration: 1 uM
  melting temperature shift: 0.775 °C

## GGA3 (UniProt Q9NZ52)
MBE1 concentration: 100 nM
  melting temperature shift: 0.0244 °C
MBE1 concentration: 1 uM
  melting temperature shift: -0.855 °C

## UniProt Q9NXL9
MBE1 concentration: 100 nM
  melting temperature shift: -0.177 °C
MBE1 concentration: 1 uM
  melting temperature shift: 1.17 °C

## UniProt Q9NWM3
MBE1 concentration: 100 nM
  melting temperature shift: -2.43 °C
MBE1 concentration: 1 uM
  melting temperature shift: -0.337 °C

## ASB6 (UniProt Q9NWX5)
MBE1 concentration: 100 nM
  melting temperature shift: 0.394 °C
MBE1 concentration: 1 uM
  melting temperature shift: -0.14 °C

## UTP6 (UniProt Q9NYH9)
MBE1 concentration: 100 nM
  melting temperature shift: -0.359 °C
MBE1 concentration: 1 uM
  melting temperature shift: -0.653 °C

## IGF2BP1 (UniProt Q9NZI8)
MBE1 concentration: 100 nM
  melting temperature shift: -0.835 °C
MBE1 concentration: 1 uM
  melting temperature shift: -0.341 °C

## UniProt Q9NWD8
MBE1 concentration: 100 nM
  melting temperature shift: 2.35 °C
MBE1 concentration: 1 uM
  melting temperature shift: -4.58 °C

## UniProt Q9UFF9
MBE1 concentration: 100 nM
  melting temperature shift: 0.136 °C
MBE1 concentration: 1 uM
  melting temperature shift: 0 °C

## UniProt Q9NYP3
MBE1 concentration: 100 nM
  melting temperature shift: -0.0122 °C
MBE1 concentration: 1 uM
  melting temperature shift: -0.122 °C

## UniProt Q9NY97
MBE1 concentration: 100 nM
  melting temperature shift: -0.691 °C
MBE1 concentration: 1 uM
  melting temperature shift: 0.349 °C
